# Results of single-concentration screens

By UniProt entry, the sequences of proteins in these tests, tags left out. Residues count along the entry.
UniProt P9WPC5, whole entry: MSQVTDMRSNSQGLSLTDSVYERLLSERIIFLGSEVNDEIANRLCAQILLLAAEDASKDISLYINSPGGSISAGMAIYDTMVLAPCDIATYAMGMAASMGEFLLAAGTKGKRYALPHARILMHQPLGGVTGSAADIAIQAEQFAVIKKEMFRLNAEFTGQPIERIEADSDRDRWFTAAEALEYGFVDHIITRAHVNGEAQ
UniProt P9WPC3, whole entry partner: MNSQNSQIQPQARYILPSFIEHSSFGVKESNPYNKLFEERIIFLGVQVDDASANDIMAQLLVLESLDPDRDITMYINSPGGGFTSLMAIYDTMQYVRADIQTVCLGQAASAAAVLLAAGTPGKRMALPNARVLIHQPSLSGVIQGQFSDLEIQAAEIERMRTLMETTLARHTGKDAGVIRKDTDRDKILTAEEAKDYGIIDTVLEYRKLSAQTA
UniProt Q4DA54, 1-478: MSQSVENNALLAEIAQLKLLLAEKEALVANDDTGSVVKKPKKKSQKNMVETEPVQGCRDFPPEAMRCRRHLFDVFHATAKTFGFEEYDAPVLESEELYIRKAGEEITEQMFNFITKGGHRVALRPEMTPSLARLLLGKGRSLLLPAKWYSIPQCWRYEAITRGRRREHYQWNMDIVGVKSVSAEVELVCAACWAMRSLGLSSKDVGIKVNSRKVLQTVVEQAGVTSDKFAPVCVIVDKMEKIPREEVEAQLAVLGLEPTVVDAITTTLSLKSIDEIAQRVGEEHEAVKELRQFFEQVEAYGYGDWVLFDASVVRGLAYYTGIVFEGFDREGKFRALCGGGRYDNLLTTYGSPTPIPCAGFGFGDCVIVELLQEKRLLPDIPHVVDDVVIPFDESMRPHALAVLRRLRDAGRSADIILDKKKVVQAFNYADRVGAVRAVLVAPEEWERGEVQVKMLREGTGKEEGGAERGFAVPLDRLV
UniProt I6X8D2, whole entry: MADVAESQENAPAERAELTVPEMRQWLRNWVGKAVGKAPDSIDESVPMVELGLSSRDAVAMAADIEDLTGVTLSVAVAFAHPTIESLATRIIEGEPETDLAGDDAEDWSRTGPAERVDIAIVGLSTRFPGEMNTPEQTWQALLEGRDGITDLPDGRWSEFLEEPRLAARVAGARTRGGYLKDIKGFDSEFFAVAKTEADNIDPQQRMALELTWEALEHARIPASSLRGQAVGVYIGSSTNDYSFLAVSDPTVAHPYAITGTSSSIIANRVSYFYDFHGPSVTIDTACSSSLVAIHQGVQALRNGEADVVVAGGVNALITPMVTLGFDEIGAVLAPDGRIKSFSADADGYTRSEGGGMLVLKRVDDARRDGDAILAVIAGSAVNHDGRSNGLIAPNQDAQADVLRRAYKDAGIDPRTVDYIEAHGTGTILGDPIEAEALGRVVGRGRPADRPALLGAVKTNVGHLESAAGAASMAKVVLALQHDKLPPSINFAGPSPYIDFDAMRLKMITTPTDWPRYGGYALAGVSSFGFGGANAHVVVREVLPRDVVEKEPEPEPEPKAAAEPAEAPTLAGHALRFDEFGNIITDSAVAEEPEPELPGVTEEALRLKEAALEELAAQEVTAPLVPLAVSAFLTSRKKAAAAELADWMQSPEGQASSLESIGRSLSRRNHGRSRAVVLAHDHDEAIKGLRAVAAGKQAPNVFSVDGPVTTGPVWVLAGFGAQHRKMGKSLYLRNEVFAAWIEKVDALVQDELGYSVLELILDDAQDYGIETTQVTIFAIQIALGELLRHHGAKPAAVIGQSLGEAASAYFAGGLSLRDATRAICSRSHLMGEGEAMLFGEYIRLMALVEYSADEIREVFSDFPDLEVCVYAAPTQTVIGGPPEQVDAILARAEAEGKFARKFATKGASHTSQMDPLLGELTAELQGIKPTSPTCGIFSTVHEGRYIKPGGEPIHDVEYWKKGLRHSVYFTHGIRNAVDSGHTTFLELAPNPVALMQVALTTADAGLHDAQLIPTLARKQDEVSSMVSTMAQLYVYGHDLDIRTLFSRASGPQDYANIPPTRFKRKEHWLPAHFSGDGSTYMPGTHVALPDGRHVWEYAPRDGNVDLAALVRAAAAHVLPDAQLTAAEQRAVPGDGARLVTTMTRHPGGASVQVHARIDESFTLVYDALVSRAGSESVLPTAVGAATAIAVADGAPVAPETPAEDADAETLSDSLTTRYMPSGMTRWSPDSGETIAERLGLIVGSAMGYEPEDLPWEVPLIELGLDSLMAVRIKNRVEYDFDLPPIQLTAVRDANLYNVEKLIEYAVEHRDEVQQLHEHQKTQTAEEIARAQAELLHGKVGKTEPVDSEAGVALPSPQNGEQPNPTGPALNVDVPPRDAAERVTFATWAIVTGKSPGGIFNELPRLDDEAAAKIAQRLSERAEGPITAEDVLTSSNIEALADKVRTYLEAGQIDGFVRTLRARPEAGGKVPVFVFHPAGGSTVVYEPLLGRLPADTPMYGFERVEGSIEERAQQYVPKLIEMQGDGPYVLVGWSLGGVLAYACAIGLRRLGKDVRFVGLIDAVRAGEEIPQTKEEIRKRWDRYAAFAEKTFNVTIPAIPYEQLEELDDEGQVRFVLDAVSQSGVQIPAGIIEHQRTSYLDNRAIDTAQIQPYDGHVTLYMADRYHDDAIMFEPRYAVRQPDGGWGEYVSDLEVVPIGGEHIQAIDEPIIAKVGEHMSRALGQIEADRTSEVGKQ
UniProt Q8IDJ8, 1-583: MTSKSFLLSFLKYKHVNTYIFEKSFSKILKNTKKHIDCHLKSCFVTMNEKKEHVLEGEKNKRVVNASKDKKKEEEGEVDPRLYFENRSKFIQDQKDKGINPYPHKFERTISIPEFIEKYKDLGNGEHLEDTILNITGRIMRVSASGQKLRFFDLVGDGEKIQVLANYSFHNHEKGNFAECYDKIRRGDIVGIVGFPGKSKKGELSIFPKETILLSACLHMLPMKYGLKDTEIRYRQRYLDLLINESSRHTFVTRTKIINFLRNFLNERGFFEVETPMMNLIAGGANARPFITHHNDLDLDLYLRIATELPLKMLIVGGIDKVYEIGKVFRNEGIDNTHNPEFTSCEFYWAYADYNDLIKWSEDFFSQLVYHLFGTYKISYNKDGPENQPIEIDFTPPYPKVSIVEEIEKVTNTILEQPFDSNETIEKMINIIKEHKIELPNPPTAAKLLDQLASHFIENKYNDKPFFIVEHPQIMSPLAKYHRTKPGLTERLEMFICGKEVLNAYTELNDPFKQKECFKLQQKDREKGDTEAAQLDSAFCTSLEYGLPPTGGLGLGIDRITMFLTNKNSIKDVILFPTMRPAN

ClpP1P2: 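ClpP1P2, Mycobacterium tuberculosis (UniProt P9WPC5 and UniProt P9WPC3). Protease assay of ClpP1P2, read by the AMC dye that it sets free. Concentration: 50 µM. Higher reads as stronger inhibition, judged from the few compounds that gave an IC50. Most other retested compounds had strongly negative values. Size under these conditions: about 69,000 compounds, about 10 of them at 50% or above in at least one test.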
Toxoplasma: 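Assay of Toxoplasma gondii numbers, read through their beta-galactosidase reporter with a colour substrate. Tested at 10 µM. The record gives no direction; the compounds picked for IC50 retests had high values, so higher reads as fewer parasites. About 67,000 compounds were tested under these conditions; 0.38% (about 260) showed 50% or more at least once.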
TcHisRS: 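Enzyme assay of histidyl-tRNA synthetase; the read-out is not stated. Target: Histidine-tRNA ligase, Trypanosoma cruzi CL Brener (UniProt Q4DA54). Compounds at 30 µM. The record gives no direction; compounds that gave an IC50 in retests scored well above the rest, so higher reads as stronger inhibition. About 69,000 compounds were tested under these conditions; 0.045% (about 31) showed 50% or more at least once.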
Pks13 thioesterase: 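Enzyme assay of the thioesterase domain of polyketide synthase 13; the read-out is not stated. Target: Polyketide synthase Pks13, Mycobacterium tuberculosis (UniProt I6X8D2). Tested at 30 µM. The record gives no direction; the compounds picked for IC50 retests had high values, so higher reads as stronger inhibition. Of about 67,000 compounds tested this way, about 300 (0.46%) reached 50% or more in at least one test.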
PfKRS1: 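Enzyme assay of the cytosolic lysyl-tRNA synthetase in 384-well plates, read by luminescence. Target: Lysine-tRNA ligase, Plasmodium falciparum 3D7 (UniProt Q8IDJ8). Tested at 30 µM. Higher reads as stronger inhibition, judged from the few compounds that gave an IC50. About 69,000 compounds were tested under these conditions; 0.071% (about 49) showed 50% or more at least once.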

Results are given as percent effect.
The controls that fix the scale are not given in the record; negative values are as filed.
Compounds were drawn at random from those tested, without regard to their results.
A dash means the value is not listed here; it may have been measured.

| SMILES | ClpP1P2 | Toxoplasma | TcHisRS | Pks13 thioesterase | PfKRS1 |
|---|---|---|---|---|---|
| `CC(C)CNC(=O)CSC1CCc2ccccc2NC1=O` (configuration not stated) | -9.957 | -5.501 | 0 | -41.61 | 3.812 |
| `CCc1ccc(CN2Cc3nccn3CC(Cn3cncn3)C2)o1` (configuration not stated) | -7.468 | - | 14.07 | 3.986 | 3.109 |
| `CNC(=O)N1CCC2(CC1)c1ncc(-c3cccc(F)c3)n1CCN2C` | -10.4 | - | 3.911 | 5.395 | 2.869 |
| `CCC(C)c1csc(NC(=O)c2sc(-c3nnc[nH]3)nc2C)n1` (configuration not stated) | 2.797 | -36.33 | 0.6061 | -9.998 | -3.275 |
| `CN(C(=O)c1ccc(-n2ncc(C#N)c2N)cc1)C1CCCC1` | -7.967 | -0.5676 | 3.134 | -1.63 | 0.8709 |
| `COc1cnc(N2CCCN(Cc3ccc(F)cc3)CC2)nc1` | -10.85 | -20.32 | 3.704 | -20.02 | 6.737 |
| `COCC(=O)N1CCCCC1c1nc(CN(C)C(C)=O)cc(N(C)C)n1` (configuration not stated) | -3.668 | -5.023 | 2 | -4.148 | -0.9119 |
| `CN(C)CCO[C@H]1CN(CC2CC2)[C@@H]2CCCO[C@H]12` | 6.404 | - | 2.513 | -47.98 | -0.183 |
| `O=C([C@H]1C[C@H]2OCC[C@H]2N(CC2CCOCC2)C1)N1CCCCO1` | -11.4 | - | 8.824 | - | 1.187 |
| `CO[C@H]1CCN(Cc2c(C)noc2C)[C@@H]2CN(Cc3cccnc3)C[C@H]12` | -2.969 | - | -2.222 | 8.196 | 2.283 |
| `CCCc1nc(C)cc(N2CCC3(CCC(=O)N(CCCO)C3)CC2)n1` | -5.909 | -6.087 | 3.488 | 13.55 | 8.665 |
| `Cc1cc(C(=O)N2CCC3(CCN3Cc3ccc(F)cc3)C2)no1.O=C(O)C(F)(F)F` (configuration not stated) | - | -7.355 | - | - | - |
| `O=C1CCC(C(=O)Nc2ccc(=O)n(Cc3ccc(Cl)c(Cl)c3)c2)N1` (configuration not stated) | 4.298 | -9.614 | 6.098 | 21.72 | 13.05 |
| `CCCS(=O)(=O)N1Cc2c(ncn2Cc2ccccc2)C[C@H]1C(=O)OC` | -6.385 | -6.321 | 0.4975 | -22.19 | 8.322 |
| `[H][C@@]12COC[C@]1(COc1nccc(C)n1)CN(C(=O)c1ccnn1C)C2` | - | 25.99 | - | - | - |
| `COc1nn(C)c2c1CCCN(C(=O)c1ccsc1)C2` | 3.456 | 17.41 | 0.6135 | 2.876 | 3.873 |
| `C=C(C)COc1cccc(CNC(CC(C)C)c2ncnn2C)c1` (configuration not stated) | 3.619 | -12.41 | 4.523 | 0.7704 | 2.267 |
| `Cc1nc(COc2ccc(OCC(N)=O)cc2)oc1C` | -5.463 | -15.42 | 2.062 | -11.67 | 0.8596 |
| `O=C(c1cnc(C2CC2)s1)N1CCCC1Cn1cccn1` (configuration not stated) | -1.928 | -28.96 | 6.59 | -9.935 | 1.543 |
| `O=C(c1cnccn1)N1CCCC(Cn2cc(C3CC3)nn2)C1` (configuration not stated) | 1.44 | -3.245 | 6.494 | -36.15 | 2.825 |
| `CC1CCCCN1c1nc2c(c(=O)[nH]1)CCN(Cc1ccccn1)C2` (configuration not stated) | -12.27 | -0.316 | -2.198 | 12.02 | -2.235 |
| `O=C(CN(CC1CCC1)CC(F)(F)F)N1CCCC1` | -9.383 | -1.844 | -1.293 | -31.89 | 4.854 |
| `CC(C)OCCC1CCCCN1S(C)(=O)=O` (configuration not stated) | -1.431 | 6.772 | 4.902 | -23.11 | -2.49 |
| `Cn1cc(CN2CCO[C@H]3C(Cn4cccn4)CC[C@@H]32)cn1` (some centres not stated) | 5.963 | - | 6.452 | -52.41 | -2.389 |
| `Cc1nccc([C@@H]2C[C@H]3CN(S(=O)(=O)c4ccccc4)C[C@H]3O2)n1` | -10.51 | - | 4.673 | -15.17 | 2.824 |
| `O=C(c1sccc1Br)N1CCOCC1` | 8.622 | 1.554 | 0 | 2.063 | -1.347 |
| `Cn1[nH]c(CNc2cccc(Cl)c2)nc1=O` | -8.369 | -1.902 | 1.22 | -9.744 | 5.754 |
| `O=C(O)C(F)(F)F.O=C(O)C(F)(F)F.[H][C@@]12CN(Cc3cccs3)CCC[C@]1(C(=O)OCC)CN(CC(C)C)C2` | - | 8.557 | - | - | - |
| `[H][C@]12CCC(=O)N(C)[C@@]1(C)CCCCN2C(=O)CCn1nccc1C` | - | -6.16 | - | - | - |
| `CS(=O)(=O)c1ccc(CNC2CCCN(c3cccnn3)C2)cc1` (configuration not stated) | 19.11 | -2.422 | 4.151 | -17.6 | -3.05 |
| `CCNC(=O)[C@@H]1C[C@@H](N)CN1C(=O)C1(c2ccc(OC)cc2)CCCC1` | 5.657 | 10.64 | 7.216 | -18.34 | 2.881 |
| `Cc1noc(C)c1CN1CCCCC1CCc1ccc(O)cc1` (configuration not stated) | 13.82 | 1.898 | 10.4 | 8.237 | 5.616 |
| `O=C(O)C(F)(F)F.O=C(O)C(F)(F)F.O=C(c1n[nH]c2c1CN(C1CCOC1)CC2)N1CCOCC1` (configuration not stated) | - | -1.294 | - | - | - |
| `CN1CC2(CCN(Cc3cccnc3)CC2)c2cccc(F)c21` | -0.5148 | - | 1.149 | - | 3.051 |
| `[H][C@]12CCN(C(=O)NCc3ccccc3C)CC[C@@]1([H])S(=O)(=O)N(C)C2` | - | 1.573 | - | - | - |
| `CC(C)NC(=O)c1nc(Cn2c(C(F)(F)F)nc3ccccc32)no1` | 7.896 | 30.81 | -1.005 | -6.279 | 2.951 |
| `O=C([C@@H]1CC[C@@H]2[C@@H](CCN2Cc2ccoc2)O1)N1CCCC1` | 4.587 | - | 4.237 | -1.004 | 0.3001 |
| `Cc1cc2ncn(C(=O)N3CCCC3)c2cc1C` | -20.14 | 11.41 | 3.101 | 6.495 | -0.05722 |
| `Cc1cc(N2CCC(N(C)Cc3cccnc3)C2=O)n(C)n1` (configuration not stated) | -14.07 | 2.01 | -3.247 | -35 | -3.672 |
| `O=C(O)C(F)(F)F.O=C(O)C(F)(F)F.O=C(O)c1c(-c2ccncc2)ncc2c1CCN(CC1CCOC1)C2` (configuration not stated) | - | 9.125 | - | - | - |
| `COCC(=O)NC(C)c1cccc(Br)c1` (configuration not stated) | -34.46 | -10.32 | 5.325 | -20.38 | 2.869 |
| `CCOC(=O)CCC(=O)N1CC(c2nc(Cc3ccccc3)no2)C1` | -2.125 | -7.376 | 4.082 | -15.48 | 4.13 |
| `CCCN1CCN(C(=O)Cc2cccnc2)[C@H]2CS(=O)(=O)C[C@H]21` | -5.786 | - | 0 | -19.16 | 2.927 |
| `CCC(=O)NCC(Cc1cccc(F)c1)n1cccc1` (configuration not stated) | 1.17 | 16.99 | 1.031 | -32.58 | 1.053 |
| `CCS(=O)(=O)N1CCC2(CC1)CC(COC)N(c1ncccn1)C2` (configuration not stated) | 9.4 | - | 2.941 | -6.4 | 10.5 |
| `COc1cccc(NC(=O)NC2(c3noc(CN(C)C)n3)CCCC2)c1` | -1.019 | -6.504 | 12.31 | -12.87 | -0.7464 |
| `CCc1nc(C2CCCN2CC(=O)Nc2c(C)nn(C)c2C)no1` (configuration not stated) | -11.56 | 0.5473 | 0.8264 | -10.22 | 0.823 |
| `COC(=O)c1ccc(NC(=O)CN2CCCCC2C2OCCO2)cc1` (configuration not stated) | 6.406 | 0.6967 | 1.724 | -13.71 | 9.429 |
| `CC(C)(C)C1SCC(=O)Nc2c1c(O)nn2C1CCCC1` (configuration not stated) | -4.671 | 18.88 | 7.317 | 3.083 | 3.418 |
| `Cc1nc(CN2C(=O)C[C@H]3[C@H]2CCN3C2CCOCC2)cs1` | 0.7169 | - | 1.653 | -4.543 | 3.625 |
| `O=C(c1cc(F)ccc1F)C1CCN(C(=O)c2cccnc2O)CC1` | 4.409 | -3.012 | -1.887 | -19.72 | 6.548 |
| `Cc1nnc([C@@H]2CC[C@@H]3[C@@H](CCN3Cc3ccccn3)O2)o1` | 10.56 | - | 5.063 | -21.95 | 1.653 |
| `CNc1cc(C2CCCN2C(=O)CCc2ccccc2F)ccn1` (configuration not stated) | -12.21 | - | 6.154 | 8.577 | 0.4359 |
| `[H][C@@]12CN(C(=O)N(C)C)C[C@]1([H])C(=O)N(C)C21CCN(C(=O)NC(C)C)CC1` | - | -21.62 | - | - | - |
| `Cc1nc(CC2CCCN(Cc3nc(N)c4ccccc4n3)C2)no1` (configuration not stated) | -5.949 | -8.139 | 6.627 | -22.31 | -1.069 |
| `COc1ccc(C2=CCN(C(=O)CN(C)CC(C)C#N)CC2)cc1` (configuration not stated) | -9.537 | - | 6.015 | 23.64 | 1.031 |
| `O=C1CC(c2ccc(O)cc2)c2sc(C(=O)O)c(-c3ccccc3)c2N1` (configuration not stated) | -5.735 | -10.36 | 0 | -18.18 | 5.469 |
| `CCn1ncc2c1C(COC)CN(Cc1nccs1)C2` (configuration not stated) | 13.32 | 26.29 | 5.607 | -40.74 | -3.959 |
| `CC(=O)N[C@@H]1CN(Cc2nccn2C)C[C@H]1c1ccc(C)cc1` | 16.16 | -1.401 | 3.247 | -22.34 | -1.699 |
| `c1ccc(N2CCC3(CCCN(c4ncccn4)C3)C2)nc1` (configuration not stated) | -1.781 | - | 14.07 | 10.38 | 5.22 |
| `CCn1cnnc1CNC(=O)N(C)Cc1c(F)cccc1Cl` | -2.861 | 0.9451 | 0.4926 | -30.03 | 8.785 |

5 of the entries, repeated:

SMILES,ClpP1P2,Toxoplasma,TcHisRS,Pks13 thioesterase,PfKRS1
C=C(C)COc1cccc(CNC(CC(C)C)c2ncnn2C)c1 (configuration not stated),3.619,-12.41,4.523,0.7704,2.267
[H][C@]12CCC(=O)N(C)[C@@]1(C)CCCCN2C(=O)CCn1nccc1C,-,-6.16,-,-,-
CCCc1nc(C)cc(N2CCC3(CCC(=O)N(CCCO)C3)CC2)n1,-5.909,-6.087,3.488,13.55,8.665
CCC(C)c1csc(NC(=O)c2sc(-c3nnc[nH]3)nc2C)n1 (configuration not stated),2.797,-36.33,0.6061,-9.998,-3.275
CCc1ccc(CN2Cc3nccn3CC(Cn3cncn3)C2)o1 (configuration not stated),-7.468,-,14.07,3.986,3.109

From ChEMBL document CHEMBL3988442, “University of Dundee, Small-Polar-MMV Screening Library” (2021).